{"source": "PubChem BioAssay AID1259405 – NCATS – 2018", "assay": "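Mouse-designed siRNAs used to find CHO productivity engineering targets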 (primary screen)", "cells": "Chinese hamster CHO-K1 ovary cells with stable secreted eGFP expression", "knock-down reagent": "single siRNA against mouse genes, 0.8 pmol siRNA per well (2 µl of 400 nM stock)", "duration": "3 days", "measurement": "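Per-well intracellular GFP measured by laser scanning cytometry, plus viability from ATP luminescence, each relative to plate median of non-targeting control wells, in %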", "reading the numbers": "GFP, % of control: higher = more GFP per well, higher productivity; viability (ATP), % of control: higher = more viable cells (more ATP)", "rule for the call": "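Called active when intracellular GFP, relative to negative control, is at or above 120%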", "note": "In all, the deposit lists about 50,000 reagents; shown is a random part of them. About 4,000 of all reagents (8%) were called active. 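Mouse siRNA library applied to hamster cells; one well for each siRNA.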 The numbers tell different reagents against one gene apart."}
{"Gene": "Dppa1 (developmental pluripotency associated 1)", "siRNA no.": 1, "GFP, % of control": 52.3, "viability (ATP), % of control": 54.9, "Call": "inactive"}
{"Gene": "Dppa1 (developmental pluripotency associated 1)", "siRNA no.": 2, "GFP, % of control": 83.6, "viability (ATP), % of control": 77.3, "Call": "inactive"}
{"Gene": "Dppa1 (developmental pluripotency associated 1)", "siRNA no.": 3, "GFP, % of control": 60.8, "viability (ATP), % of control": 67.4, "Call": "inactive"}
{"Gene": "Sdha", "siRNA no.": 1, "GFP, % of control": 42.1, "viability (ATP), % of control": 48.3, "Call": "inactive"}
{"Gene": "Sdha", "siRNA no.": 2, "GFP, % of control": 64.3, "viability (ATP), % of control": 48.9, "Call": "inactive"}
{"Gene": "Sdha", "siRNA no.": 3, "GFP, % of control": 80.8, "viability (ATP), % of control": 95.8, "Call": "inactive"}
{"Gene": "Appl2", "siRNA no.": 1, "GFP, % of control": 64.9, "viability (ATP), % of control": 80.7, "Call": "inactive"}
{"Gene": "Appl2", "siRNA no.": 2, "GFP, % of control": 87.1, "viability (ATP), % of control": 77.2, "Call": "inactive"}
{"Gene": "Appl2", "siRNA no.": 3, "GFP, % of control": 116, "viability (ATP), % of control": 90.9, "Call": "inactive"}
{"Gene": "Cyp51 (cytochrome P450, family 51)", "siRNA no.": 1, "GFP, % of control": 85, "viability (ATP), % of control": 97.7, "Call": "inactive"}
{"Gene": "Cyp51 (cytochrome P450, family 51)", "siRNA no.": 2, "GFP, % of control": 122, "viability (ATP), % of control": 104, "Call": "active"}
{"Gene": "Cyp51 (cytochrome P450, family 51)", "siRNA no.": 3, "GFP, % of control": 42.8, "viability (ATP), % of control": 34.7, "Call": "inactive"}
{"Gene": "Igf2bp1 (insulin-like growth factor 2 mRNA binding protein 1)", "siRNA no.": 1, "GFP, % of control": 70.5, "viability (ATP), % of control": 79.8, "Call": "inactive"}
{"Gene": "Igf2bp1 (insulin-like growth factor 2 mRNA binding protein 1)", "siRNA no.": 2, "GFP, % of control": 81, "viability (ATP), % of control": 96.7, "Call": "inactive"}
{"Gene": "Igf2bp1 (insulin-like growth factor 2 mRNA binding protein 1)", "siRNA no.": 3, "GFP, % of control": 94.6, "viability (ATP), % of control": 114, "Call": "inactive"}
{"Gene": "Trem3 (triggering receptor expressed on myeloid cells 3)", "siRNA no.": 1, "GFP, % of control": 91.3, "viability (ATP), % of control": 83.6, "Call": "inactive"}
{"Gene": "Trem3 (triggering receptor expressed on myeloid cells 3)", "siRNA no.": 2, "GFP, % of control": 103, "viability (ATP), % of control": 86.9, "Call": "inactive"}
{"Gene": "Trem3 (triggering receptor expressed on myeloid cells 3)", "siRNA no.": 3, "GFP, % of control": 67.3, "viability (ATP), % of control": 104, "Call": "inactive"}
{"Gene": "Rer1 (retention in endoplasmic reticulum sorting receptor 1)", "siRNA no.": 1, "GFP, % of control": 71.4, "viability (ATP), % of control": 106, "Call": "inactive"}
{"Gene": "Rer1 (retention in endoplasmic reticulum sorting receptor 1)", "siRNA no.": 2, "GFP, % of control": 63.6, "viability (ATP), % of control": 61.6, "Call": "inactive"}
{"Gene": "Rer1 (retention in endoplasmic reticulum sorting receptor 1)", "siRNA no.": 3, "GFP, % of control": 71.5, "viability (ATP), % of control": 72.8, "Call": "inactive"}
{"Gene": "Rrp1 (ribosomal RNA processing 1)", "siRNA no.": 1, "GFP, % of control": 66.9, "viability (ATP), % of control": 55.6, "Call": "inactive"}
{"Gene": "Rrp1 (ribosomal RNA processing 1)", "siRNA no.": 2, "GFP, % of control": 43.5, "viability (ATP), % of control": 56.6, "Call": "inactive"}
{"Gene": "Rrp1 (ribosomal RNA processing 1)", "siRNA no.": 3, "GFP, % of control": 70.9, "viability (ATP), % of control": 78.3, "Call": "inactive"}
{"Gene": "Elfn1", "siRNA no.": 1, "GFP, % of control": 28.9, "viability (ATP), % of control": 25.6, "Call": "inactive"}
{"Gene": "Elfn1", "siRNA no.": 2, "GFP, % of control": 128, "viability (ATP), % of control": 99.1, "Call": "active"}
{"Gene": "Elfn1", "siRNA no.": 3, "GFP, % of control": 82.7, "viability (ATP), % of control": 59.1, "Call": "inactive"}
{"Gene": "Xrcc1 (X-ray repair complementing 1)", "siRNA no.": 1, "GFP, % of control": 114, "viability (ATP), % of control": 117, "Call": "inactive"}
{"Gene": "Xrcc1 (X-ray repair complementing 1)", "siRNA no.": 2, "GFP, % of control": 85.6, "viability (ATP), % of control": 93.4, "Call": "inactive"}
{"Gene": "Fbxw9 (F-box and WD-40 domain protein 9)", "siRNA no.": 1, "GFP, % of control": 62.2, "viability (ATP), % of control": 72.6, "Call": "inactive"}
{"Gene": "Fbxw9 (F-box and WD-40 domain protein 9)", "siRNA no.": 2, "GFP, % of control": 74.5, "viability (ATP), % of control": 62.9, "Call": "inactive"}
{"Gene": "Fbxw9 (F-box and WD-40 domain protein 9)", "siRNA no.": 3, "GFP, % of control": 84.5, "viability (ATP), % of control": 115, "Call": "inactive"}
{"Gene": "Immp2l", "siRNA no.": 1, "GFP, % of control": 91.6, "viability (ATP), % of control": 102, "Call": "inactive"}
{"Gene": "Immp2l", "siRNA no.": 2, "GFP, % of control": 58.6, "viability (ATP), % of control": 50.7, "Call": "inactive"}
{"Gene": "Immp2l", "siRNA no.": 3, "GFP, % of control": 79.6, "viability (ATP), % of control": 58.5, "Call": "inactive"}
{"Gene": "Or8b8 (olfactory receptor family 8 subfamily B member 8)", "siRNA no.": 1, "GFP, % of control": 30.4, "viability (ATP), % of control": 46.9, "Call": "inactive"}
{"Gene": "Or8b8 (olfactory receptor family 8 subfamily B member 8)", "siRNA no.": 2, "GFP, % of control": 108, "viability (ATP), % of control": 97.3, "Call": "inactive"}
{"Gene": "Or8b8 (olfactory receptor family 8 subfamily B member 8)", "siRNA no.": 3, "GFP, % of control": 80.4, "viability (ATP), % of control": 84.5, "Call": "inactive"}
{"Gene": "Cntn2 (contactin 2)", "siRNA no.": 1, "GFP, % of control": 141, "viability (ATP), % of control": 91.7, "Call": "active"}
{"Gene": "Cntn2 (contactin 2)", "siRNA no.": 2, "GFP, % of control": 87.7, "viability (ATP), % of control": 73.4, "Call": "inactive"}
{"Gene": "St8sia2 (ST8 alpha-N-acetyl-neuraminide alpha-2,8-sialyltransferase 2)", "siRNA no.": 1, "GFP, % of control": 93.6, "viability (ATP), % of control": 81.8, "Call": "inactive"}
{"Gene": "St8sia2 (ST8 alpha-N-acetyl-neuraminide alpha-2,8-sialyltransferase 2)", "siRNA no.": 2, "GFP, % of control": 139, "viability (ATP), % of control": 141, "Call": "active"}
{"Gene": "St8sia2 (ST8 alpha-N-acetyl-neuraminide alpha-2,8-sialyltransferase 2)", "siRNA no.": 3, "GFP, % of control": 101, "viability (ATP), % of control": 92.2, "Call": "inactive"}
{"Gene": "Pcbp1 (poly(rC) binding protein 1)", "siRNA no.": 1, "GFP, % of control": 66.1, "viability (ATP), % of control": 78.3, "Call": "inactive"}
{"Gene": "Pcbp1 (poly(rC) binding protein 1)", "siRNA no.": 2, "GFP, % of control": 143, "viability (ATP), % of control": 133, "Call": "active"}
{"Gene": "Rspo4 (R-spondin 4)", "siRNA no.": 1, "GFP, % of control": 131, "viability (ATP), % of control": 69.4, "Call": "active"}
{"Gene": "Rspo4 (R-spondin 4)", "siRNA no.": 2, "GFP, % of control": 38.7, "viability (ATP), % of control": 51.8, "Call": "inactive"}
{"Gene": "Rspo4 (R-spondin 4)", "siRNA no.": 3, "GFP, % of control": 85.1, "viability (ATP), % of control": 70, "Call": "inactive"}
{"Gene": "G3bp1 (G3BP stress granule assembly factor 1)", "siRNA no.": 1, "GFP, % of control": 80.9, "viability (ATP), % of control": 102, "Call": "inactive"}
{"Gene": "G3bp1 (G3BP stress granule assembly factor 1)", "siRNA no.": 2, "GFP, % of control": 44.6, "viability (ATP), % of control": 50.3, "Call": "inactive"}
{"Gene": "G3bp1 (G3BP stress granule assembly factor 1)", "siRNA no.": 3, "GFP, % of control": 76.5, "viability (ATP), % of control": 75.1, "Call": "inactive"}
{"Gene": "Tsfm (Ts translation elongation factor, mitochondrial)", "siRNA no.": 1, "GFP, % of control": 72.4, "viability (ATP), % of control": 54.5, "Call": "inactive"}
{"Gene": "Tsfm (Ts translation elongation factor, mitochondrial)", "siRNA no.": 2, "GFP, % of control": 68.1, "viability (ATP), % of control": 77.8, "Call": "inactive"}
{"Gene": "Tsfm (Ts translation elongation factor, mitochondrial)", "siRNA no.": 3, "GFP, % of control": 76.3, "viability (ATP), % of control": 54.1, "Call": "inactive"}

Called active, of those listed so far:
{"Gene": "Cyp51 (cytochrome P450, family 51)", "siRNA no.": 2, "GFP, % of control": 122, "viability (ATP), % of control": 104, "Call": "active"}
{"Gene": "Elfn1", "siRNA no.": 2, "GFP, % of control": 128, "viability (ATP), % of control": 99.1, "Call": "active"}
{"Gene": "Cntn2 (contactin 2)", "siRNA no.": 1, "GFP, % of control": 141, "viability (ATP), % of control": 91.7, "Call": "active"}
{"Gene": "St8sia2 (ST8 alpha-N-acetyl-neuraminide alpha-2,8-sialyltransferase 2)", "siRNA no.": 2, "GFP, % of control": 139, "viability (ATP), % of control": 141, "Call": "active"}
{"Gene": "Pcbp1 (poly(rC) binding protein 1)", "siRNA no.": 2, "GFP, % of control": 143, "viability (ATP), % of control": 133, "Call": "active"}
{"Gene": "Rspo4 (R-spondin 4)", "siRNA no.": 1, "GFP, % of control": 131, "viability (ATP), % of control": 69.4, "Call": "active"}
